Sequences and labels used below:
B1: Ecd^l(3)23 mutant protein (truncated Ecd), epitope-tagged (domain or fragment, UniProt Q9W032 1-650)
chain: MSKIPGSNLEFVREEDFVEYYIFPKIPDNVQDEGALRKLMLQIRNEISAIVREKSLERSYLWHKDEFQLQVRLGGAEERLLNEETNPEEEAELGDLPPHFHGVTHYGDNISDEWFVVYLLTEITRARGDCIARVSDSDGEFLLIEAADALPDWASPETCEQRVYLVGGHLQLLQNSAASSQDKPLTMAMAVQRIRMNPTLYRCSQEIQSCIDARLKEYQIAQPHFSIHRQVLELPHSAAQLLKQKPRLLSSAVRAFCERDSLDIKALRTMRYFPPEATRVRTNVRFTRCLYAMLSHQQYLPEKRLGWHLTDPVSEPERYKEQLLGLKLASGLEILATQAKRVEGQQLEDLPAWRSYLRSLLSKGYFRDNIEGSAEYQELLNKAKVYFRGNQERFRTASRAGAEILDLLLHPAEAASEELRDEENNLQPSDSDEWLNISAEDLDSMLQDRYGPKKLYKPNGQMNAEEFTKQLAEFLDRQSNYEGIEHRGLEEPELDSDDDEPPPQANGSTGLTAKVKKNPSMRKACQRNSVIQPEEPDSTHVRNFLDFVIPEDNWDSTSEMSDYADEDDMESNLNALSGGGSVFPLDRQIQSYMEQMDRELAQTSVGKSFHGKKKTAPQADEDDFDDIEDFEPININVNTLRNMMDSYQSQ
B2: Ecd^1 mutant protein (P656S), epitope-tagged (protein, UniProt Q9W032 1-684)
chain: MSKIPGSNLEFVREEDFVEYYIFPKIPDNVQDEGALRKLMLQIRNEISAIVREKSLERSYLWHKDEFQLQVRLGGAEERLLNEETNPEEEAELGDLPPHFHGVTHYGDNISDEWFVVYLLTEITRARGDCIARVSDSDGEFLLIEAADALPDWASPETCEQRVYLVGGHLQLLQNSAASSQDKPLTMAMAVQRIRMNPTLYRCSQEIQSCIDARLKEYQIAQPHFSIHRQVLELPHSAAQLLKQKPRLLSSAVRAFCERDSLDIKALRTMRYFPPEATRVRTNVRFTRCLYAMLSHQQYLPEKRLGWHLTDPVSEPERYKEQLLGLKLASGLEILATQAKRVEGQQLEDLPAWRSYLRSLLSKGYFRDNIEGSAEYQELLNKAKVYFRGNQERFRTASRAGAEILDLLLHPAEAASEELRDEENNLQPSDSDEWLNISAEDLDSMLQDRYGPKKLYKPNGQMNAEEFTKQLAEFLDRQSNYEGIEHRGLEEPELDSDDDEPPPQANGSTGLTAKVKKNPSMRKACQRNSVIQPEEPDSTHVRNFLDFVIPEDNWDSTSEMSDYADEDDMESNLNALSGGGSVFPLDRQIQSYMEQMDRELAQTSVGKSFHGKKKTAPQADEDDFDDIEDFEPININVNTLRNMMDSYQSQVGGAGSVSNLFSAMGVGMSAVEDKEQKDISESAV
B3: Ecd, epitope-tagged (co-immunoprecipitation of Figure 1C) (protein, UniProt Q9W032 1-684)
chain: B2 chain with S656P

Chains of the proteins cited; added tags and fusions are not shown. Lines headed by an entry give the natural chain unless they say otherwise; changes in a name come on top.
UniProt Q9VEA6: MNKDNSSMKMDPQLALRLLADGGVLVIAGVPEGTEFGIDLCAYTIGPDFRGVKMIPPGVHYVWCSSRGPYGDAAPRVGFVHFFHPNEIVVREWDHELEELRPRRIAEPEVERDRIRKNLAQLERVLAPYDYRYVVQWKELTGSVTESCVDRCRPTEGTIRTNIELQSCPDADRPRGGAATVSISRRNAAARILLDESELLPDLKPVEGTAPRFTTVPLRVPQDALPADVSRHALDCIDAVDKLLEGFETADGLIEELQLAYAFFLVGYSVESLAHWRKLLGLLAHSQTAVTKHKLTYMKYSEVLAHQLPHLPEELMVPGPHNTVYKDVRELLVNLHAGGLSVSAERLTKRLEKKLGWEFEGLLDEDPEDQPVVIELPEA

Where a chain is given by its changes, count along the chain named. Numbers in names are those of the source. No constants are given. Whether binding was seen depends on the method and setting. In cells and extracts the contact can be indirect. For part of these data: Binding calls can cover weak binding; strength is not graded here. Tags and fused reporters may be left off the sequences shown.

The first test deals with Flag-tagged Snu114 (Drosophila) (Drosophila melanogaster). Put plainly: co-IP; pairs of epitope-tagged proteins expressed in S2 cells; lysis in 50 mM Tris-HCl pH 7.8, 150 mM NaCl, 1 mM EDTA, 1% Triton X-100, 0.01% Igepal; anti-Flag magnetic beads overnight at 4°C, five washes, immunoblot by the tags; cells with Ecd^1 upshifted to 30°C for 45 min before lysis; control: empty pTFW vector.
Consider B1, for which the binding result is reported as “no binding”.

On to B2, for which the binding result is recorded as “no binding”.

As to B3, the binding result was “no binding”.

A further test addresses Flag-tagged Aar2 (Drosophila) (Drosophila melanogaster) (UniProt Q9VEA6). Described as above.
As for B1, the binding entry was “binds”.

B2: the binding result is listed as “binds”.

For B3, the binding result is on record as “binds”.

The record behind these values is paper PMC3983036.
